Measurements reported in US6369109B1, “Betulinic acid and derivatives thereof useful for the treatment of neuroectodermal tumor” (Deutsches Krebsforschungszentrum Stiftung des Offentlichen …, priority 1998, dated 2002).
“Also recorded” adds a separate entry of the source. At least one compound was matched to its structure with a doubt left.

Legend:
[1] = tested on: p53 protein in SH-EP neuroblastoma cells; experiment: Western blot of p53 accumulation; type: cell-based, human; details: 10 μg/ml betulinic acid; 0.5 μg/ml doxorubicin 12 h; FIG. 5D
Protocol: Cells were lysed for 30 min at 4° C. in PBS with 0.5% Triton X (Serva, Heidelberg, Germany) and 1 mM phenylmethylsulfonyl fluoride (Sigma, Deisenhofen, Germany) followed by high-speed centrifugation. Membrane proteins were eluted in buffer containing 0.1 M glycine. PH 3.0 and 1.5 M Tris, pH 8.8. Protein concentration was assayed using bicinchoninic acid (Pierce Chemical Co., Rockford, Ill.). Forty μg of protein per lane were separated by 12% SDS-PAGE and electroblotted onto nitrocellulose (Amersham, Braunschweig, Germany). Equal protein loading was controlled by Ponceau red staining of membranes. After blocking for 1 h in PBS supplemented with 2% BSA (Sigma) and 0.1% Tween 20 (Sigma), immunodetection of FLICE, CPP32, PARP, Bax, Bcl-x, Bcl-2, and p53 protein was done using mouse anti-FLICE monoclonal antibody C15 (1:5 dilution of hybridoma supernatant), mouse anti-CPP32 monoclonal antibody (1:1000, Transduction Laboratories, Lexington, KY), rabbit anti-PARP polyclonal antibody (1:10000, Enzyme Systems Products), rabbit anti-Bax polyclonal antibody (1:500, Calbiochem, Bad Soden, Germany), rabbit anti-Bcl-x polyclonal antibody (1:1000, Santa Cruz Biotechnology, Santa Cruz, Calif.), mouse anti-p53 monoclonal antibody (1:10000, Transduction Laboratories), and goat anti-mouse 1gG or goat antirabbit IgG (1:5000, Santa Cruz Biotechnology), ECL (Amersham) was used for detection. […]

[2] = tested on: breast carcinoma (MCF-7); experiment: Western blot of FLICE and PARP cleavage; type: cell-based; details: 10 μg/ml, 24 h; FIG. 6B
[3] = tested on: doxorubicin-resistant neuroblastoma (SH-EP^DoxoR); experiment: Western blot of FLICE and PARP cleavage; type: cell-based, human; details: 10 μg/ml, 24 h; FIG. 6B
[4] = tested on: caspase-3, caspase-8 and PARP in cytosolic extracts of SHEP cells; experiment: Cell-free system of apoptosis: cleavage of caspases in cytosolic extracts by mitochondria; type: biochemical, human
Protocol: For determination of nuclear fragmentation, nuclei (10^3/μl) were incubated with mitochondria (1 μg/μl) in buffer D (10 mM HEPES, pH 7.4, 50 mM NaCl, 2 mM MgCl2, 5 mM EGTA, 1 mM DDT, 2 mM ATP, 10 mM phosphocreatine, 50 μg/ml creatine kinase, 10 μM cytochalasin B) for 2 h at 37° C. Nuclei were stained with propidium iodide ([…]) and analyzed by flow cytometry. For determination of caspase activation, cytosolic extracts (2 μg/μl) were incubated with mitochondria (1 μg/μl), cytochrome c (0.1-100 μM) or AIF-containing mitochondrial supernatant (0.5 μg/μl) in buffer D for 2 h at 37° C. Partially purified AIF (cytochrome c-free) was prepared as previously described (0.5 mg/ml, Susin et al., 1997, J. Exp. Med. 186, 5-37; Susin et al., 1996, J. Exp. Med. 184, 1331-41). Proteins were separated by 15% SDS-PAGE and Western blot analysis was performed as described above. […]
For determination of nuclear fragmentation, nuclei (10^3/μl) were incubated with mitochondria (1 μg/μl) in buffer D (10 mM HEPES, pH 7.4, 50 mM NaCl, 2 mM MgCl2, 5 mM EGTA, 1 mM DDT, 2 mM ATP, 10 mM phosphocreatine, 50 μg/ml creatine kinase, 10 μM cytochalasin B) for 2 h at 37° C. Nuclei were stained with propidium iodide ([…]) and analyzed by flow cytometry (Susin et al., 1997 Exp. Cell Res. 236:397-403). […]

[5] = tested on: small cell lung carcinoma (H-146); experiment: Specific apoptosis, FACS analysis of propidium iodide-stained nuclei; type: cell-based; details: 10 μg/ml, 72 h; FIG. 1A
[6] = tested on: colon carcinoma (HT-29); experiment: as above; type: cell-based; details: 10 μg/ml, 72 h; FIG. 1A

Compound: C=C(C)[C@@H]1CC[C@]2(C(=O)O)CC[C@]3(C)[C@H](CC[C@@H]4[C@@]5(C)CC[C@H](O)C(C)(C)[C@@H]5CC[C@]43C)[C@@H]12 [betulinic acid, 3β-3-hydroxylup-20(29)-en-28-oic acid]
- accumulation of p53 protein [1]: does not induce the accumulation of p53 protein
- cleavage of FLICE and PARP [2]: but not in tumor cells resistant to betulinic acid
- cleavage of FLICE and PARP [3]: led to cleavage of FLICE and PARP
- caspase and PARP processing in cytosolic extracts by mitochondria from drug-treated cells ([4]; 10 μg/ml betulinic acid or 0.5 μg/ml doxorubicin 16 h, extracts 6 h, FIG. 9A, 15A): resulted in processing of caspase-6, caspase-3 and the prototype substrate PARP; also recorded: induced cleavage of caspases-3, -8 and PARP
- treatment time at which cleavage of caspase-8, caspase-3 and PARP was first detectable ([4]; mitochondria from cells treated with 10 μg/ml, FIG. 9B): 12 h
- response to betulinic acid (specific apoptosis) [5]: almost completely refractory
- response to betulinic acid (specific apoptosis) [6]: almost completely refractory
